# Laboratory results reported in patent publication US7122528B2, “Use of 5-substituted nucleosides and/or prodrugs thereof in the resistance-free treatment of infectious diseases” (RESPROTECT GmbH, priority 2001, dated 2006).
# At least one structure is not confirmed: it was looked up by name or label, or the drawing left a doubt.
# Columns and labels:
# [1] = tested on: E. coli J53 (RP4) strains; experiment: Determination of minimal inhibitory concentrations (MIC) of Kanamycin or Amikacin on starter, adapted and BVDU-pretreated strains; type: cell-based, Escherichia coli; conditions: strain which had become resistant to 64 μg/ml Kanamycin
# Text: In order to determine the minimal inhibitory concentrations (MIC), precultures were used initially for which antibiotic-free culture medium had been inoculated directly from frozen glycerine cultures. […] However even higher antibiotic concentrations still led to the growth of the inoculum. However, the growth inhibition prevented a larger cell density in the bacteria culture being reached.
# In order to test the stability of the specific resistance features of the E. coli strains, the MIC determination was repeated. The already tested precultures were again absorbed for this purpose in antibiotic-free culture medium and tested for their Kanamycin resistance. The resistance spectra of the starter strain and of the strain adapted to 64 μg/ml remained unchanged. […] The results are illustrated in FIG. 4.
# The results can be deduced from FIG. 6.
# In order to determine the minimal inhibitory concentrations (MIC) of Kanamycin or Amikacin relative to aminoglycoside/BVDU-pretreated E coli J53 (RP4) strains, standard precultures were used which contained no additives in the culture medium (recovery phase). In addition, it was tested in comparative experiments to what extent the addition of BVDU to the antibiotic-free precultures changes the resistant spectrum of the strains.
# [2] = tested on: Escherichia coli J53 (RP4); experiment: Growth tests: adaptation (resistance development) to aminoglycoside antibiotic with or without BVDU; type: cell-based; conditions: Kanamycin 64 μg/ml alone
# Text: Escherichia coli J53 was used as Gram-negative model organism in order to test the effectiveness of BVDU. This organism carries the naturally occurring plasmid RP4, on which resistances to Ampicillin, Tetracycline and Kanamycin are encoded.
# The results are illustrated in FIGS. 1 and 2.
smiles,measurement,setting,value
NC[C@H]1O[C@H](O[C@H]2[C@H](O)[C@@H](O[C@H]3O[C@H](CO)[C@@H](O)[C@H](N)[C@H]3O)[C@H](N)C[C@@H]2N)[C@H](O)[C@@H](O)[C@@H]1O [Kanamycin],increase of Kanamycin MIC relative to the starter strain,[1],four times increased
same,"adaptation, i.e. resistance development, to the antibiotic",[2],"slow adaptation, i.e. resistance development"
